Among all 31,000 sequences or so, about 1,400 (4.5%) were called active.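 The calls were made as follows: active = median seed-adjusted z-score above 1 or below -1; inactive = the rest.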 Some of the results follow.
Assay: Novel Modifiers of Survival Motor Neuron (SMN) Protein: Gene Identification via Genome-wide siRNA Screen;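 also: luminescence tracks full-length SMN protein made from the SMN2 reporter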
Details: HEK293T SMN2-luciferase reporter, siRNA knockdown, 72 h; actives lie on both sides
Summary of the method: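 HEK293T cells stably carrying an SMN2 promoter/splicing cassette–luciferase reporter were reverse-transfected with 1 pmol siRNA per well (druggable-genome library, 3 siRNAs per gene) and grown 72 h at 37 °C. Luminescence, normalized to negative-control siRNA and log10-transformed, was scored as MAD.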

Sequence	median seed-adjusted z-score
CACCGGUGAGAUUCCCUAUTT against ZNF546	inactive: 0.497
CGAAGACUUUUCAAUCCAATT against BANK1	inactive: 0.962
GGAUGGUCUCAAUCAGACATT against LARP4	inactive: -0.701
CCUUCAGUCUUAACUCCAATT against ZKSCAN1	inactive: 0.229
GCCGGACAAGGAGAUCGAATT against RBP5	inactive: -0.748
GGCUAAAGGAAAAUCUAUATT against AADAC	inactive: 0.0318
GUGAUACAGUGGAAGUACATT against SLC30A1	inactive: 0.314
CCACCGACACUUUUAACUATT against CPA1	inactive: -0.187
GACAGAAGAGUAACCGGAATT against SIGLEC7	inactive: -0.296
GGCUCAGUAUGACGAUGUUTT against KRT85	inactive: -0.126
CGGACUUCUUACUCGCAGATT against ATMIN	inactive: -0.55
CGAAGAUGUCUUUACGGAATT against SPTB	inactive: 0.153
GGAGUAAACAACAUACUGATT against SPZ1	inactive: 0.535
AGAACUUCAUCAUUCCAAATT against PPP2R4	inactive: 0.318
GCGACGAUGAGGAAGGUUATT against EEF2K	inactive: 0
CCACGCAGGUGUUCUUCAATT against ATP5D	inactive: 0
GAAUAGAUACGCGAAUGUATT against PTPRD	inactive: 0.425
ACACGUUCAUGGACCUGAUTT against OTUB1	inactive: 0.598
GACCACCUAGUGAUAUAUATT against NUDT9	inactive: 0.277
CGCUGUUGGAUUUAAUGGATT against EPN2	inactive: -0.00173
GAGAGCAUGUGAUUCGUUATT against SRPX2	inactive: 0.101
GACUCCUUGCUGAAUCUGATT against CLDN1	inactive: 0.307
CCGAAGUUCUUAUCUUGUUTT against ZNF434	inactive: 0.545

Sequence	median seed-adjusted z-score
CAUAGUCACAUGAUUAAUATT against POSTN	inactive: -0.45
CGGCACUUCCUGACCCUAUTT against AANAT	inactive: -0.168
GCUCCUUGGUACUUAGAUUTT against HEXB	inactive: 0.0101
GCUUCAAGGUCAACUCAAATT against ACSBG2	inactive: 0.027
GAGGAAUUGUUGAUAAAGATT against MAGI2	inactive: -0.23
GCUCCUUGCAAGAAGUUUATT against PSMA5	inactive: -0.824
GAACCUUGGUUAUUACGGUTT against SETBP1	inactive: 0.0232
GGAUUUUAAACGAUACAAATT against ASPN	inactive: -0.0432
AGUGGGCGAAGGUACAAUATT against CARD17	inactive: 0.301
CGUUUAUUGUAAGUUGAUATT against CDK2AP1	inactive: 0.168
CCAGAGUUCUGUGAUCCCUTT against PNPO	inactive: -0.0845
CGGUGUCUCUGGAUCAGUATT against RASGRP2	inactive: -0.00329
GAAGGAUCUCAAACUCGAATT against NECAB1	inactive: 0.0268
CAUGGACUCUGUUCGCUCATT against TUBB	inactive: -0.307
CCUCCUUGUUAACAGCUUUTT against BST1	inactive: -0.28
GGUUAUGCUUGGAUGCAGATT against TFDP2	inactive: 0.85
CCGAAUCAUUAUGCACCAATT against OCLN	inactive: 0.232
GGAGCAAGGUGAUGUCACATT against MVK	inactive: -0.192
CGGAGACCGUACGAAAGUATT against A2M	active: -1.96
CCGUGAAUAUUAUAAGGGATT against ZNF214	inactive: 0.467
CUAUAUCGGUGCUCCAAAATT against IFNAR1	inactive: 0.0327
CAUCAGUCAUAAUGCCUAUTT against MAP1D	inactive: 0.155
GACUAACAUUUAUCUAGAUTT against PI4KA	inactive: 0

Sequence	median seed-adjusted z-score
GCUCGUGCCUUAGUUCGAATT against ABCB5	inactive: 0.495
CCUCUAACGUACCAUCUAATT against OLAH	inactive: -0.44
CAGUCAAGCUGAUCCGCUATT against PKD2L1	inactive: 0.445
CAACAAGGGCAACAAGAAATT against CEL	inactive: 0
AGCUCUUAUUAGCUGCAUATT against MS4A7	inactive: 0.0794
CGAUAUCAGGAGAGGUUCATT against SPRYD3	inactive: 0.207
GCUGCUUGCAGUAACCUUATT against COL1A2	inactive: 0.481
AGCUGGAUAAGGUGAAUUUTT against IKBKE	inactive: 0.122
CCCUCUAACUGCUCGGAUATT against DNASE2	active: -1.23
CCUGCAGUGCAGUACCUAUTT against GPS2	inactive: 0
CCUCUAUACUGAUAACGAUTT against GABRB3	inactive: 0.0757
CAGUCGUCAUAAUACUGCATT against SMC4	inactive: 0.646
GCUGCCGCCCAAUGUCAUATT against CITED2	inactive: -0.0248
GGACUUUUUCAACGAGCAATT against NLGN1	inactive: 0.187
GCUCAUUACUUAUUAUACATT against ZNF568	inactive: 0.501
GGAAAGGAGACAUGCGUAATT against HMOX2	inactive: 0
GAAAAAUUGUGAGAUCGUATT against GLYATL1	inactive: 0.0148
GGAUUGGAACCAGUACUCATT against HELZ	inactive: 0.0778
GAAAUAGACUAAGUCUUCUTT against RGS18	inactive: -0.0369
UCACGGCUCUGUUGAAUGUTT against DUSP4	inactive: -0.176
GGAUGGGAGCUACAGUUUUTT against SLC25A11	inactive: -0.731
ACUUCGAGGUGUCCCAUGATT against CPNE6	inactive: -0.528
ACGUGGUGCUGAUGUGCUATT against RHOH	inactive: 0.443

Quoted from above for reference:
Sequence	median seed-adjusted z-score
CCUCUAACGUACCAUCUAATT against OLAH	inactive: -0.44
CAGUCAAGCUGAUCCGCUATT against PKD2L1	inactive: 0.445
CAACAAGGGCAACAAGAAATT against CEL	inactive: 0
